Assay results as given in patent US20240300991A1, “NUCLEOSIDE DERIVATIVE HAVING MULTI-TARGET KINASE INHIBITORY ACTIVITY AND PHARMACEUTICAL COMPOSITION FOR PREVENTING AND TREATING CANCER COMPRISING SAME” (FUTURE MEDICINE CO., LTD., priority 2021, published 2024).
At least one structure is not confirmed: it was looked up by name or label, or the drawing left a doubt.

Key:
Assay in all cases: Kinase inhibition test (DNA-tagged kinase, affinity resin, qPCR readout)
Format in all cases: binding
Parameters in all cases: key: (−) indicates no effect; (+) indicates weak inhibitory activity; (++) indicates a moderate level of inhibitory activity; (+++) indicates strong inhibitory activity
Conditions in all cases: 1 μM of compound
[1] = molecular target: T1, CSNK1D (Homo sapiens, UniProt P48730)
T1 construct: made in house
Excerpt: (§1) In order to examine the inhibitory activity of the nucleoside derivatives of the present invention synthesized in the Preparation Examples against kinases, the nucleoside derivatives were confirmed to have inhibitory activity against neurotrophic tyrosine kinase receptor type 1 or tropomyosin receptor kinase A (NTRK1), casein kinase 1 isoform delta (CSNK1D), dual specificity tyrosine-phosphorylation-regulated kinase 1A (DYRK1A), dual specificity tyrosine-phosphorylation-regulated kinase 1B (DYRK1B) and receptor-type tyrosine-protein kinase or fms like tyrosine kinase 3 or cluster of differentiation antigen 135 (CD135) or fetal liver kinase-2 (Flk2) (FLT3).
(§2) The inhibition measurement method is as follows. Most of the kinases were produced by culturing a phage in which BL21 E. coli was tagged with a kinase at 32° C. until lysis, followed by centrifugation and filtration. Further, the kinases were produced using HEK-293 cells. Thereafter, the kinases were DNA tagged for qPCR. After an affinity resin was prepared by stirring a biotin-tagged substrate onto streptavidin-coated beads for 30 minutes, a non-specifically bound substrate was washed with a buffer (SeaBlock (Pierce), 1% BSA, 0.05% Tween 20, 1 mM DTT).
(§3) For a kinase test, the kinase, the substrate, the affinity resin, and a test material dissolved in dimethyl sulfoxide were stirred together in a buffer (20% SeaBlock, 0.17×PBS, 0.05% Tween20, and 6 mM DTT) at room temperature for 1 hour. Thereafter, an affinity substrate was washed with a buffer (1×PBS, 0.05% Tween20), and then suspended in an elution buffer (1×PBS, 0.05% Tween20, 0.5 μM non-biotinylated affinity ligand), and the resulting suspension was stirred. The concentration of the kinase was quantified by qPCR.

[2] = molecular target: T2, DYRK1A (Homo sapiens, UniProt Q13627)
T2 construct: made in house
Excerpt: as §1, §2, §3

[3] = molecular target: T3, DYRK1B (Homo sapiens, UniProt Q9Y463)
T3 construct: made in house
Excerpt: as §1, §2, §3

[4] = molecular target: T4, NTRK1 (Homo sapiens, UniProt P04629)
T4 construct: made in house
Excerpt: as §1, §2, §3

C#Cc1cn([C@@H]2S[C@H](CN3CCOCC3)[C@@H](O)[C@H]2O)c2ncnc(N)c12 [Compound 12a, (2R,3R,4S,5R)-2-(4-amino-5-ethynyl-7H-pyrrolo[2,3-d]pyrimidin-7-yl)-5-(morpholinomethyl)tetrahydrothiophene-3,4-diol]
CSNK1D inhibitory activity [1]: ++
DYRK1A inhibitory activity [2]: +++
DYRK1B inhibitory activity [3]: ++
NTRK1 inhibitory activity [4]: ++
